Some of these results come from one statement about several compounds together.
System: HCT-116 cells
Assay: Clonal dilution assay for bystander effect cell killing
Assay type: cell-based, human
Settings: 25 μM GCV 24 hours; for Bystander effect: decrease in cell colony numbers: 5% HSV-1 TK-expressing cells, FIG. 5; for Bystander effect: reduction in cell colony numbers: 25% and 50% proportions of HSV-1 TK-expressing cells
Procedure: Each of the three HSV-1 TK expressing cell lines were plated with parental HCT-116 cells (total 2×10^5/well) in the following proportions: (parental: HSV-1TK cells) 100%:0; 95%:5%; 90%:10%; 75%:25%; 50%:50% and 0:100%. […] After 7 days, surviving cell colonies were fixed in 100% methanol, stained with 0.1% methylene blue and counted.
For determination of GCV sensitivity, parental HCT-116 and each HSV-1 TK expressing cells were seeded in 24 well plates (2×10^5/well) in 1 ml of media. The next day, 0, 0.1, 1 or 10 μM GCV was added to each cell line in triplicate. After 24 hours, for each well the media was removed, cells were rinsed twice in fresh media, trypsinized, then media was added to 1 ml per well. Each well of cells was then sequentially diluted from 1:10 to 1:10,000 in 1 ml of fresh media on a separate 24 well plate. After 7 days, surviving cell colonies were fixed in 100% methanol, stained with 0.1% methylene blue and counted. For bystander effect assays, each of the three HSV-1 TK expressing cell lines were plated with parental HCT-116 cells (total 2×10^5/well) in the following proportions: (parental: HSV-1TK cells) 100%:0; 95%:5%; 90%:10%; 75%:25%; 50%:50% and 0:100%. After two days, 25 μM GCV was added in 1 ml fresh media. After 24 hrs, the media was removed and cells from each well were diluted from 1:10 to 1:10,000 as described above. After 7 days, surviving cell colonies were fixed and stained for counting.
It has been previously established that HCT-116 cells expressing HSV-1 TK are sensitive to bystander effect cell death via a connexin-43 gap junction mediated transfer of GCV metabolites (24). To evaluate this effect in the HSV-1 TK 116 cell panel, clonal dilution assays were performed with different proportions of HSV-1 TK expressing cells (5-50%) mixed with HCT-116 parental cells. Cell populations were treated with 25 μM GCV for 24 hours, and then diluted from 1:10 to 1:10,000. […] In these same cell lines, a greater than 4-log reduction in cell colony numbers was detected with 25% and 50% proportions of HSV-1 TK-expressing cells. […] Even though the bystander effect with the Glu-125TK-expressing cells was clearly attenuated relative to the other two cell lines, the Glu-125 mutant was still able to generate significant bystander effect cell killing.

Row | Substance | Bystander effect: decrease in cell colony numbers | Bystander effect: reduction in cell colony numbers
1 | Asn-125 | greater than 1 log | greater than 4 log
2 | Gln-125 (WT): wild-type herpes simplex virus type 1 thymidine kinase with glutamine at position 125, parent enzyme [reference compound] | greater than 1 log | greater than 4 log
